Experimental data taken from PubChem BioAssay AID248 (DTP/NCI, 2004).
The list is a part of this screen's results and no random one: it is rich in T/C values a quarter to a half above the control, in often repeated tests (any T/C) and in doses without a T/C. Further doses and runs are listed elsewhere. T/C is the treated group as % of the vehicle group. Some entries give survivors of the animals treated and no T/C: the source files T/C as zero there, which appears to mark a toxic dose or a test without result, not a measured value. Some survivor counts are full or nearly so, which does not show that the dose was tolerated: survival well below the control is almost never listed, so the zero probably covers shortened survival too. Survivors were counted at the toxicity check, usually on the fifth day, unless a day is given; later deaths do not show. Schedule codes are those of the source, read here as Q, the interval in days (D) or hours (H), X, the number of doses. Some schedule codes hold Z or #, which are not explained here. Some structures stand for samples that the source files as different forms (salt, stereo form or complex); doses refer to the form tested. Some entries hold several experiments; the values are given in rising order. Where survival is the endpoint, the PubChem record calls one and a half times the control and up active, and a quarter to a half above the control has no call in these data; cut-offs in other NCI protocols can differ. Additions like (4×) stand for listed records that agree. Some T/C values carry the count of animals alive at the toxicity check (mostly the fifth day); where none is given, no animal had died by that day.

Tested on: L1210 leukemia ip in BDF1 mice, survival T/C
Assay: NCI In Vivo Anticancer Drug Screen. Data for tumor model L1210 Leukemia (intraperitoneal) in B6D2F1 (BDF1) mice
Settings: T/C endpoint: mean survival time, higher T/C = longer survival
[1] = dose: 64.0 mg/kg/injection, schedule: Q01DX009 (ip), vehicle: water
[2] = dose: 150.0 mg/kg/injection, schedule: Q01DX001 (ip), vehicle: other

SMILES: Cc1c2ccncc2c(C)c2c1[nH]c1ccccc12
- T/C [1]: 127 % of control
- survivor count [1]: 9 of 10 and 10 of 10
- survivor count (dose: 64.0 mg/kg/injection, schedule: Q04DX003 (ip), vehicle: acid diluted with saline): 0 of 10
- T/C (dose: 64.0 mg/kg/injection, schedule: Q04DX003 (ip), vehicle: clinical formulation): 131 % of control
- T/C (dose: 64.0 mg/kg/injection, schedule: Q08DX002 (oral), vehicle: clinical formulation): 127 % of control
- T/C (dose: 64.0 mg/kg/injection, schedule: Q## X003 (ip), vehicle: other): 144 % of control
- T/C (dose: 75.0 mg/kg/injection, schedule: Q01DX001 (ip), vehicle: Klucel (hydroxypropylcellulose) (HPC)): 138 % of control
- T/C (dose: 75.0 mg/kg/injection, schedule: Q01DX001 (ip), vehicle: other): 128 [6 of 8 alive], 130, 151, 174 [9 of 10 alive], 177 % of control
- T/C (dose: 75.0 mg/kg/injection, schedule: Q01DX001 (ip), vehicle: saline with Tween-80): 127 % of control
- T/C (dose: 75.0 mg/kg/injection, schedule: Q01DX001 (ip), vehicle: saline, evaluated on day 60): 141 and 166 % of control
- T/C (dose: 75.0 mg/kg/injection, schedule: Q01DX001 (ip), vehicle: saline, run until all animals had died): 125 and 138 % of control
- T/C (dose: 75.0 mg/kg/injection, schedule: Q01DX001 (ip), vehicle: steroid suspending solution): 132 % of control
- T/C (dose: 75.0 mg/kg/injection, schedule: Q01DX001 (oral), vehicle: other, evaluated on day 40): 127 % of control
- T/C (dose: 75.0 mg/kg/injection, schedule: Q01DX001 (oral), vehicle: other, evaluated on day 60): 129 [8 of 10 alive], 130, 141 % of control
- T/C (dose: 75.0 mg/kg/injection, schedule: Q01DX001 (sc), vehicle: other): 130 and 133 % of control
- T/C (dose: 75.0 mg/kg/injection, schedule: Q01DX Z (oral), vehicle: carboxymethylcellulose (CMC)): 139 % of control
- survivor count (dose: 75.0 mg/kg/injection, schedule: Q03HX008 (ip), vehicle: steroid suspending solution): 7 of 8
- survivor count (dose: 75.0 mg/kg/injection, schedule: Q03HX016 (ip), vehicle: steroid suspending solution): 6 of 8
- T/C (dose: 75.0 mg/kg/injection, schedule: Q04DX003 (ip), vehicle: Klucel (hydroxypropylcellulose) (HPC), evaluated on day 5): 149 and 181 % of control
- T/C (dose: 75.0 mg/kg/injection, schedule: Q04DX003 (ip), vehicle: Klucel (hydroxypropylcellulose) (HPC), evaluated on day 30): 185 % of control
- T/C (dose: 75.0 mg/kg/injection, schedule: Q04DX003 (ip), vehicle: Klucel (hydroxypropylcellulose) (HPC), evaluated on day 60): 149, 159, 181, 198, 232 % of control
- T/C (dose: 75.0 mg/kg/injection, schedule: Q08DX002 (ip), vehicle: other): 147 % of control
- T/C (dose: 75.0 mg/kg/injection, schedule: Q## X003 (oral), vehicle: carboxymethylcellulose (CMC)): 145 % of control
- T/C (dose: 80.0 mg/kg/injection, schedule: Q01DX001 (ip), vehicle: acid diluted with saline): 128 % of control
- T/C (dose: 80.0 mg/kg/injection, schedule: Q01DX001 (ip), vehicle: other): 136 % of control
- T/C (dose: 80.0 mg/kg/injection, schedule: Q01DX009 (ip), vehicle: carboxymethylcellulose (CMC)): 130 % of control
- T/C (dose: 80.0 mg/kg/injection, schedule: Q01DX009 (ip), vehicle: other): 130 % of control
- survivor count (dose: 80.0 mg/kg/injection, schedule: Q04DX009 (ip), vehicle: Klucel (hydroxypropylcellulose) (HPC)): 6 of 6
- T/C (dose: 80.0 mg/kg/injection, schedule: Q## X008 (ip), vehicle: other): 135 % of control
- T/C (dose: 100.0 mg/kg/injection, schedule: Q01DX001 (ip), vehicle: saline): 147 % of control
- T/C (dose: 100.0 mg/kg/injection, schedule: Q01DX001 (oral), vehicle: saline with Tween-80): 131 and 135 % of control
- T/C (dose: 100.0 mg/kg/injection, schedule: Q01DX001 (oral), vehicle: water): 125 % of control
- survivor count (dose: 100.0 mg/kg/injection, schedule: Q01DX005 (oral), vehicle: water): 6 of 6
- survivor count (dose: 100.0 mg/kg/injection, schedule: Q01DX009 (ip), vehicle: citric acid): 8 of 10
- survivor count (dose: 100.0 mg/kg/injection, schedule: Q01DX009 (ip), vehicle: clinical formulation): 6 of 10
- T/C (dose: 100.0 mg/kg/injection, schedule: Q04DX002 (ip), vehicle: Klucel (hydroxypropylcellulose) (HPC)): 126 % of control
- survivor count (dose: 100.0 mg/kg/injection, schedule: Q04DX003 (ip), vehicle: citric acid): 10 of 10
- survivor count (dose: 100.0 mg/kg/injection, schedule: Q04DX003 (ip), vehicle: clinical formulation): 10 of 10
- T/C (dose: 100.0 mg/kg/injection, schedule: Q04DX003 (ip), vehicle: saline with Tween-80): 114, 153, 197, 221, 255 % of control
- T/C (dose: 100.0 mg/kg/injection, schedule: Q04DX003 (oral), vehicle: saline): 148 % of control
- T/C (dose: 115.0 mg/kg/injection, schedule: Q01DX001 (ip), vehicle: saline): 131 % of control
- T/C (dose: 115.0 mg/kg/injection, schedule: Q01DX Z (oral), vehicle: saline): 144 % of control
- T/C (dose: 120.0 mg/kg/injection, schedule: Q## X008 (oral), vehicle: carboxymethylcellulose (CMC)): 132 % of control
- T/C (dose: 120.0 mg/kg/injection, schedule: Q## X008 (oral), vehicle: other): 141 % of control
- T/C (dose: 124.0 mg/kg/injection, schedule: Q01DX001 (ip), vehicle: acetone): 145 % of control
- survivor count (dose: 128.0 mg/kg/injection, schedule: Q01DX001 (ip), vehicle: clinical formulation): 6 of 10
- T/C (dose: 128.0 mg/kg/injection, schedule: Q01DX001 (oral), vehicle: clinical formulation): 142 % of control
- T/C (dose: 128.0 mg/kg/injection, schedule: Q01DX001 (sc), vehicle: clinical formulation): 135 % of control
- survivor count (dose: 128.0 mg/kg/injection, schedule: Q01DX009 (ip), vehicle: other): 10 of 10
- survivor count (dose: 128.0 mg/kg/injection, schedule: Q01DX009 (ip), vehicle: saline): 9 of 9
- survivor count (dose: 128.0 mg/kg/injection, schedule: Q01DX009 (ip), vehicle: water): 4 of 10 and 10 of 10
- survivor count (dose: 128.0 mg/kg/injection, schedule: Q04DX003 (ip), vehicle: acid diluted with saline): 8 of 10
- survivor count (dose: 128.0 mg/kg/injection, schedule: Q04DX003 (ip), vehicle: clinical formulation): 8 of 10
- T/C (dose: 150.0 mg/kg/injection, schedule: Q01DX001 (ip), vehicle: Klucel (hydroxypropylcellulose) (HPC)): 142 % of control
- T/C [2]: 147 % of control
- survivor count [2]: 2 of 8, 3 of 10, 4 of 10, 7 of 10
- T/C (dose: 150.0 mg/kg/injection, schedule: Q01DX001 (ip), vehicle: saline with Tween-80): 136 % of control
- T/C (dose: 150.0 mg/kg/injection, schedule: Q01DX001 (ip), vehicle: steroid suspending solution): 129 % of control
- T/C (dose: 150.0 mg/kg/injection, schedule: Q01DX001 (oral), vehicle: Klucel (hydroxypropylcellulose) (HPC)): 133 % of control
- T/C (dose: 150.0 mg/kg/injection, schedule: Q01DX001 (oral), vehicle: carboxymethylcellulose (CMC)): 131 % of control
- T/C (dose: 150.0 mg/kg/injection, schedule: Q01DX001 (oral), vehicle: other, evaluated on day 40): 143 % of control
- T/C (dose: 150.0 mg/kg/injection, schedule: Q01DX001 (oral), vehicle: other, evaluated on day 60): 126, 126 [8 of 10 alive], 151 [9 of 10 alive], 163 % of control
- T/C (dose: 150.0 mg/kg/injection, schedule: Q01DX001 (oral), vehicle: saline): 131 % of control
- survivor count (dose: 150.0 mg/kg/injection, schedule: Q01DX009 (ip), vehicle: saline with Tween-80): 10 of 10
- survivor count (dose: 150.0 mg/kg/injection, schedule: Q01DX Z (oral), vehicle: carboxymethylcellulose (CMC)): 6 of 6
- T/C (dose: 150.0 mg/kg/injection, schedule: Q04DX003 (ip), vehicle: Klucel (hydroxypropylcellulose) (HPC), evaluated on day 5): 109 and 135 % of control
- T/C (dose: 150.0 mg/kg/injection, schedule: Q04DX003 (ip), vehicle: Klucel (hydroxypropylcellulose) (HPC), evaluated on day 30): 129 % of control
- T/C (dose: 150.0 mg/kg/injection, schedule: Q04DX003 (ip), vehicle: Klucel (hydroxypropylcellulose) (HPC), evaluated on day 60): 109, 113, 120, 135 % of control
- survivor count (dose: 150.0 mg/kg/injection, schedule: Q04DX003 (ip), vehicle: clinical formulation): 6 of 10
- survivor count (dose: 150.0 mg/kg/injection, schedule: Q04DX003 (ip), vehicle: lactic acid): 6 of 9
- survivor count (dose: 150.0 mg/kg/injection, schedule: Q04DX003 (ip), vehicle: saline): 10 of 10
- survivor count (dose: 150.0 mg/kg/injection, schedule: Q08DX002 (ip), vehicle: other): 1 of 8
- T/C (dose: 150.0 mg/kg/injection, schedule: Q## X002 (oral), vehicle: other): 147 % of control
- T/C (dose: 160.0 mg/kg/injection, schedule: Q01DX001 (ip), vehicle: other): 145 % of control
- survivor count (dose: 160.0 mg/kg/injection, schedule: Q#A X018 (ip), vehicle: other): 10 of 10
- survivor count (dose: 160.0 mg/kg/injection, schedule: Q#A X018 (oral), vehicle: other): 9 of 10
- T/C (dose: 170.0 mg/kg/injection, schedule: Q01DX001 (ip), vehicle: saline): 142 % of control
- survivor count (dose: 170.0 mg/kg/injection, schedule: Q01DX Z (oral), vehicle: saline): 6 of 6
- T/C (dose: 200.0 mg/kg/injection, schedule: Q01DX001 (oral), vehicle: saline with Tween-80): 128 and 144 % of control
- T/C (dose: 200.0 mg/kg/injection, schedule: Q01DX001 (oral), vehicle: water): 133 and 139 % of control
- survivor count (dose: 200.0 mg/kg/injection, schedule: Q01DX009 (ip), vehicle: citric acid): 0 of 10
- survivor count (dose: 200.0 mg/kg/injection, schedule: Q01DX009 (ip), vehicle: clinical formulation): 0 of 10
- T/C (dose: 200.0 mg/kg/injection, schedule: Q04DX002 (ip), vehicle: Klucel (hydroxypropylcellulose) (HPC)): 129 % of control
- survivor count (dose: 200.0 mg/kg/injection, schedule: Q04DX003 (ip), vehicle: clinical formulation): 2 of 10
- T/C (dose: 200.0 mg/kg/injection, schedule: Q04DX003 (ip), vehicle: saline with Tween-80): 93, 125, 133 (2×), 136 % of control
- T/C (dose: 200.0 mg/kg/injection, schedule: Q04DX003 (ip), vehicle: saline): 145 % of control
